# Results as given in the supplement of paper PMC10849652.
# Protein sequences, listed by entry. Tags and fused reporters are not part of them. Lines headed by an entry give the natural chain unless they say otherwise; changes in a name come on top.
# UniProt Q06203, whole entry, looked up: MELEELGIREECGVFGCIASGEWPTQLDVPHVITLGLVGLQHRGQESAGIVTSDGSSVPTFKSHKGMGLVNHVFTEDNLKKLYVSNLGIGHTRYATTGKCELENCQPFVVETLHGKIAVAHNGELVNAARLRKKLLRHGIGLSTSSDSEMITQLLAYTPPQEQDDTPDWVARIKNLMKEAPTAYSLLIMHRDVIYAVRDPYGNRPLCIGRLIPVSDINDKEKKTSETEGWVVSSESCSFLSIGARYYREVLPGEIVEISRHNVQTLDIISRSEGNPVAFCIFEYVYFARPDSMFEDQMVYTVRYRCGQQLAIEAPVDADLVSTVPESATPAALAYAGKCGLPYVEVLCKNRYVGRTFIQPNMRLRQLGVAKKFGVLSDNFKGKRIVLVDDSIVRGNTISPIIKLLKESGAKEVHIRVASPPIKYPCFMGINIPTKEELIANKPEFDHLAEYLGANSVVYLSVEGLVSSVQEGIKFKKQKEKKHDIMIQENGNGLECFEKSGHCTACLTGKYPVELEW
# UniProt Q9BY77: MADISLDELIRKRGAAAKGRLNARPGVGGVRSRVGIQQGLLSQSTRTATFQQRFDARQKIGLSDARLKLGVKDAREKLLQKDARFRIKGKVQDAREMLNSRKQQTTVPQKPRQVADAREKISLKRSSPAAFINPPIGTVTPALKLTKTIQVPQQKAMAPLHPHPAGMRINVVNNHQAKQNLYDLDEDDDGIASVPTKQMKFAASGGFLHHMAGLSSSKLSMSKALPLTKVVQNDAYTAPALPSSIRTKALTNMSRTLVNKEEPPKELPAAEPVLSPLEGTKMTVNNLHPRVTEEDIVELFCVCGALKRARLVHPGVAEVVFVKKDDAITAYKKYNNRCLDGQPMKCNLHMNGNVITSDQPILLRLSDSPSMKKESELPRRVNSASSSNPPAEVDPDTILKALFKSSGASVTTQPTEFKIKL
# UniProt O43660: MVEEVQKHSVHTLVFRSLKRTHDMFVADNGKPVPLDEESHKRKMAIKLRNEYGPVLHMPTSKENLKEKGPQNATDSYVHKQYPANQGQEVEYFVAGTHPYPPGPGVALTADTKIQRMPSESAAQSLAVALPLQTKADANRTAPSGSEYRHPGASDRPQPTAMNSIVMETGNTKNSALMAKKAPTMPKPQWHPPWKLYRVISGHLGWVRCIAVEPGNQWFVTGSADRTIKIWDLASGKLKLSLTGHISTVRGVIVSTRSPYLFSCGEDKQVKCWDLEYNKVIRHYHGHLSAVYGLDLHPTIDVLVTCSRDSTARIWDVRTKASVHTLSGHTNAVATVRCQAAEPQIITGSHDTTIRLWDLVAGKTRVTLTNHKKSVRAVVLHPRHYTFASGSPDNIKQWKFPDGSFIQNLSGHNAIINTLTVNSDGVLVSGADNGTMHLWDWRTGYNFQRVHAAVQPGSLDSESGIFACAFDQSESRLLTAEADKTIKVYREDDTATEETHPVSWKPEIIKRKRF
# UniProt P14859: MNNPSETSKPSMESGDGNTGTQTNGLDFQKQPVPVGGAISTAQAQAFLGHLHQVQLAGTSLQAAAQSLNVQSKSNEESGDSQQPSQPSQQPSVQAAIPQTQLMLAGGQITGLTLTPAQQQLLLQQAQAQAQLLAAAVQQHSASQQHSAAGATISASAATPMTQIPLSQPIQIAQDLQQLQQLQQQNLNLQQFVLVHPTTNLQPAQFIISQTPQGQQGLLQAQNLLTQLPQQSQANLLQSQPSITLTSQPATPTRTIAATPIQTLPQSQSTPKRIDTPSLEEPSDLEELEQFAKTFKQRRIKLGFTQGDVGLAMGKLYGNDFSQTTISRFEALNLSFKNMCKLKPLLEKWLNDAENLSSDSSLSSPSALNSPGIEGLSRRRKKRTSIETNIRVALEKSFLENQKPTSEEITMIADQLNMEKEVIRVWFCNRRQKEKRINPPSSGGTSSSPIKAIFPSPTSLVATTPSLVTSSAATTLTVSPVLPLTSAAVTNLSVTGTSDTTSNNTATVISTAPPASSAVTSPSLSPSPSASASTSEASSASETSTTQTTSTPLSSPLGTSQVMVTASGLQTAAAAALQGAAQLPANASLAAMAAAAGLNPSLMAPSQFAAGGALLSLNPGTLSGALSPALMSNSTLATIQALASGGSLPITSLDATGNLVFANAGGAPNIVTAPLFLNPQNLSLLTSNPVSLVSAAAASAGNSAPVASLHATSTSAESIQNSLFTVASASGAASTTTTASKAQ
# UniProt Q9NVS9: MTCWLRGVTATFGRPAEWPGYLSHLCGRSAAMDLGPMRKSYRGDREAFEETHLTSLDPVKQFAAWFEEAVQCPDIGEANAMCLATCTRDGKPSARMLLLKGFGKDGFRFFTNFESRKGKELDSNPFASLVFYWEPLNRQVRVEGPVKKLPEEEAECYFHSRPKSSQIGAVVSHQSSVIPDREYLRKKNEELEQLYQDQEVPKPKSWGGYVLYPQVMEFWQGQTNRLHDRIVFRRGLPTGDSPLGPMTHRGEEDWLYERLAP
# UniProt Q99575: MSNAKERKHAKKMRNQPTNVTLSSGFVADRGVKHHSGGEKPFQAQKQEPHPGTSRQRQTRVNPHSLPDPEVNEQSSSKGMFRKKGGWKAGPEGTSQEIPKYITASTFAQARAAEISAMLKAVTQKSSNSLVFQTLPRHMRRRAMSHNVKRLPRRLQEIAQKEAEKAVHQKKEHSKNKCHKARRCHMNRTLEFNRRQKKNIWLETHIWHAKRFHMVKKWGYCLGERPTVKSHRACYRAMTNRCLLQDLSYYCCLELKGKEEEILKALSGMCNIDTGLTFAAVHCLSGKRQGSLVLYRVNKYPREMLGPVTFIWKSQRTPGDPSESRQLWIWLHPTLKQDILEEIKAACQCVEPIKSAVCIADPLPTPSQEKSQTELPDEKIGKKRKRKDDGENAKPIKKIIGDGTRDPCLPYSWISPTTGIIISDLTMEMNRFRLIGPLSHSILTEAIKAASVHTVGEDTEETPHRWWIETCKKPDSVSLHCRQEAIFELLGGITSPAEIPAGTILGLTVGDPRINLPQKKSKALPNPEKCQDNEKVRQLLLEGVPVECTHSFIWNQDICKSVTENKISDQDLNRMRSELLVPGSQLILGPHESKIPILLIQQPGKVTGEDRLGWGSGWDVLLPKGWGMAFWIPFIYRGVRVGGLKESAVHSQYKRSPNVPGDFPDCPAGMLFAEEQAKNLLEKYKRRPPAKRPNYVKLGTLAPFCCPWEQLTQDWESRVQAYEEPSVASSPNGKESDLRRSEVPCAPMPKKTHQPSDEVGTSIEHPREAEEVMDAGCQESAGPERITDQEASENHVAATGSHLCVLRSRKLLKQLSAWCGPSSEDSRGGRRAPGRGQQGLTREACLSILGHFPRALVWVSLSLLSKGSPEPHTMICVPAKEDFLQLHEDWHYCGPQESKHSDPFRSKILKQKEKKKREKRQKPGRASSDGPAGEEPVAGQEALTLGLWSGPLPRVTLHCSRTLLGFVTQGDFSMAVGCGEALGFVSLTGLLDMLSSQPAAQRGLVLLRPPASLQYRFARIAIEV
# UniProt Q04941: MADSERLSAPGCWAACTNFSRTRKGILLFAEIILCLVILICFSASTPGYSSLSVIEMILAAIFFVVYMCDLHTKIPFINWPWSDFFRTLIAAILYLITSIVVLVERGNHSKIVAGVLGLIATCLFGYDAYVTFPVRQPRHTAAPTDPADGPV
# UniProt O60664: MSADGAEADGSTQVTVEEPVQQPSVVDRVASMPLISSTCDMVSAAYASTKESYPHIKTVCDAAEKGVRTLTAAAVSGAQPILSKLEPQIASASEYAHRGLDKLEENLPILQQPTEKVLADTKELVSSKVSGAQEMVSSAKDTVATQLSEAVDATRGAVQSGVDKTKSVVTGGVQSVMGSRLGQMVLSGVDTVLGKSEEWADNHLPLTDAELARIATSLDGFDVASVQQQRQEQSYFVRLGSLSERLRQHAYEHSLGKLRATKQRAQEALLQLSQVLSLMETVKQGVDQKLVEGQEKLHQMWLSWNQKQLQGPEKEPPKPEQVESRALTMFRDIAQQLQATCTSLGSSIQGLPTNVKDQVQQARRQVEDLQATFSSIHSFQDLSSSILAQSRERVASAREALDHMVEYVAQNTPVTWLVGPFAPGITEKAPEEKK
# UniProt P54278: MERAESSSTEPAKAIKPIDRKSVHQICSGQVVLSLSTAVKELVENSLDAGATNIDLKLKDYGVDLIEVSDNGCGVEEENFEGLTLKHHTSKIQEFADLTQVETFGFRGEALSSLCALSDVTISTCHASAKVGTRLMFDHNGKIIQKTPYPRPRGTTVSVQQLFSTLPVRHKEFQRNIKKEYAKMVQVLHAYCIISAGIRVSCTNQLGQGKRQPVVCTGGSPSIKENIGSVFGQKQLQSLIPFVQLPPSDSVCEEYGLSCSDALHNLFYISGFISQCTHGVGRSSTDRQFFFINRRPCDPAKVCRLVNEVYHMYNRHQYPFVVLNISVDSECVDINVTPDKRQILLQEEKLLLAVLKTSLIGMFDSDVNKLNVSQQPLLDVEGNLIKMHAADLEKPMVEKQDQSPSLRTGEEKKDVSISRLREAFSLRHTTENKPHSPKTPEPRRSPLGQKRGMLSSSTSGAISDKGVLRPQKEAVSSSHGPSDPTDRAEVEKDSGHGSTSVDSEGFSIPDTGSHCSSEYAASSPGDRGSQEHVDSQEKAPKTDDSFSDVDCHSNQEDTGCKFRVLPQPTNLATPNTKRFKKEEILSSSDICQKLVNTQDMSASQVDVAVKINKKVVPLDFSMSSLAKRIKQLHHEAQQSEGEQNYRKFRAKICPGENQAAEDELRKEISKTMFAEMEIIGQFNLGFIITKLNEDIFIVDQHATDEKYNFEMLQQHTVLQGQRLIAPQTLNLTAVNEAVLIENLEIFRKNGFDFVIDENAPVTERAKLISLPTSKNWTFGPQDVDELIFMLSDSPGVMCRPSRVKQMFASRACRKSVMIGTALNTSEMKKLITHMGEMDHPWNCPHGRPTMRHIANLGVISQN
# UniProt P45877: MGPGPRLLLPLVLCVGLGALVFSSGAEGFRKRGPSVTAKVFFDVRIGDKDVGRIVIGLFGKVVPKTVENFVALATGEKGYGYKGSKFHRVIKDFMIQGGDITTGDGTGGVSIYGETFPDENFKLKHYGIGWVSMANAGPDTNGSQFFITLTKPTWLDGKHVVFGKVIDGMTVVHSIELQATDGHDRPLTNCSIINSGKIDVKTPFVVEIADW
# UniProt P0DPB6, whole entry, looked up: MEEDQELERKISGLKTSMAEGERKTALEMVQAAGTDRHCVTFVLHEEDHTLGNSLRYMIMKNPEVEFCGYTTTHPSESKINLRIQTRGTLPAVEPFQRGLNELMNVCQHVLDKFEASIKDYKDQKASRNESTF
# UniProt Q9Y2Y1: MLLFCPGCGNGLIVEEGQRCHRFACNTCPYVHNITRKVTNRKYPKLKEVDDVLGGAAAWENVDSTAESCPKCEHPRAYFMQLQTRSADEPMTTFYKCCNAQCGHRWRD
# UniProt O75439: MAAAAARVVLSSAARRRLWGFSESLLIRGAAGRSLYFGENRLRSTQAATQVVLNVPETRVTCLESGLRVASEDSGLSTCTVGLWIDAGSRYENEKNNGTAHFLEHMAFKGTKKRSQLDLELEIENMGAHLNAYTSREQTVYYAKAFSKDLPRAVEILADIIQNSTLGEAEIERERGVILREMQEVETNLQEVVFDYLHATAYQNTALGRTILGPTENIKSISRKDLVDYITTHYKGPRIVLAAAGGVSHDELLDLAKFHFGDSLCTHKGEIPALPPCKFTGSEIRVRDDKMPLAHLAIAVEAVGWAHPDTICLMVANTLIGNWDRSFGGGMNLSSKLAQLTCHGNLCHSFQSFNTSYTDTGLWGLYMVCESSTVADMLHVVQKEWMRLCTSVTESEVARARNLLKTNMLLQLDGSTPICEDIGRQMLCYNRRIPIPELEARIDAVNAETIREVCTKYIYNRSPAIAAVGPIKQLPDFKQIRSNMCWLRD
# UniProt Q99541: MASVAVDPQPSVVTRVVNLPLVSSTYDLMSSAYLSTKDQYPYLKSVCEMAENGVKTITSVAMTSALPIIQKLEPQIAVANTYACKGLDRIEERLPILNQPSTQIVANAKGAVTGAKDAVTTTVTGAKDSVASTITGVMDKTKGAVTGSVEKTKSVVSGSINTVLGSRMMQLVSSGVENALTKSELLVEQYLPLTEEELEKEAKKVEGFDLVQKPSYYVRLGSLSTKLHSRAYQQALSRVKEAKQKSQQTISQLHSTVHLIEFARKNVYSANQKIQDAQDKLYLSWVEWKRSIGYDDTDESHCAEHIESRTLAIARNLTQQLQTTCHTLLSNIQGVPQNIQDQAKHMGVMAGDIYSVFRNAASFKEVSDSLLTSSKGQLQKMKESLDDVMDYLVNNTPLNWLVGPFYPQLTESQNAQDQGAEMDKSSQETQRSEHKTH
# UniProt P0DPB5: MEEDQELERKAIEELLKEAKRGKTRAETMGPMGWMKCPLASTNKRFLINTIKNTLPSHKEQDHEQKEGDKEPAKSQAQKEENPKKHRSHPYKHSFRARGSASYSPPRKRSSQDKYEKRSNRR
# UniProt Q9NR33: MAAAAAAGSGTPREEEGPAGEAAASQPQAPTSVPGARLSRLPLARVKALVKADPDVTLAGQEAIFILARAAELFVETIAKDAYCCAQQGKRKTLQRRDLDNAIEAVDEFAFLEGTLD
# Some of the results follow.
# Experiments:
# Experiment in all cases: log2 fold change, soluble protein after heating vs DMSO (PISA); higher = thermal stabilisation; K562 cells, 10 uM, 30 min; active = over 0.2 and 3.5 SD of the protein, either way, in both replicates (recomputed)
# [1] = compound: CS(=O)(=O)c1ccc(-c2cnc(N)c(C(=O)Nc3ccccc3)n2)cc1
# How it was run: (§1)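 Quantification of soluble protein used TMTpro 16plex LC-MS/MS, with channel sums equalised. Samples were the supernatant after 21,000xg for 90 min of pooled aliquots from K562 cells (2×10^6 cells/mL) treated with 10 μM compound for 30 min, heated for 3 min over 48°C-58°C, and extracted in PBS with 0.5% NP-40 at 4°C. Values, from duplicates, describe thermal stability against control samples on a log2 fold-change scale.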
# crizotinib = compound: C[C@@H](Oc1cc(-c2cnn(C3CCNCC3)c2)cnc1N)c1c(Cl)ccc(F)c1Cl [crizotinib]
# How it was run: as §1
# [2] = compound: C[C@@H]1COCCN1C2=NC(=NC(=C2)C3(CC3)S(=O)(=O)C)C4=C5C=CNC5=CC=C4
# How it was run: as §1
# [3] = compound: C[C@H](C1=CC=C(C=C1)C(=O)NC2=C3C=CNC3=NC=C2)N
# How it was run: as §1
# duvelisib = compound: C[C@H](Nc1ncnc2nc[nH]c12)c1cc2cccc(Cl)c2c(=O)n1-c1ccccc1 [duvelisib]
# How it was run: as §1
# gandotinib = compound: Cc1cc(Nc2cc(CN3CCOCC3)c3nc(C)c(Cc4ccc(Cl)cc4F)n3n2)n[nH]1 [gandotinib]
# How it was run: as §1
# tozasertib = compound: Cc1cc(Nc2cc(N3CCN(C)CC3)nc(Sc3ccc(NC(=O)C4CC4)cc3)n2)n[nH]1 [tozasertib]
# How it was run: as §1
# [4] = compound: Cc1cc(SCc2sc(-c3ccc(C(F)(F)F)cc3)nc2C)ccc1OCC(=O)O
# How it was run: as §1
# doramapimod = compound: Cc1ccc(-n2nc(C(C)(C)C)cc2NC(=O)Nc2ccc(OCCN3CCOCC3)c3ccccc23)cc1 [doramapimod]
# How it was run: as §1
# ispinesib = compound: Cc1ccc(C(=O)N(CCCN)[C@@H](c2nc3cc(Cl)ccc3c(=O)n2Cc2ccccc2)C(C)C)cc1 [ispinesib]
# How it was run: as §1
Target,log2 fold change [1],log2 fold change (crizotinib),log2 fold change [2],log2 fold change [3],log2 fold change (duvelisib),log2 fold change (gandotinib),log2 fold change (tozasertib),log2 fold change [4],log2 fold change (doramapimod),log2 fold change (ispinesib)
POLR2F (UniProt P61218),inactive: -0.1,inactive: 0.213,inactive: 0.132,inactive: 0.147,inactive: 0.131,inactive: 0.206,inactive: 0.202,inactive: -0.143,inactive: -0.167,inactive: 0.059
PPAT (UniProt Q06203),inactive: 0.012,inactive: 0.041,inactive: 0.025,inactive: -0.045,inactive: 0.028,inactive: -0.003,inactive: 0.012,inactive: -0.047,inactive: -0.022,inactive: 0.028
POLDIP3 (UniProt Q9BY77),inactive: -0.009,inactive: 0.012,inactive: -0.206,inactive: 0.088,inactive: -0.029,inactive: 0.054,inactive: 0,inactive: -0.057,inactive: 0.028,inactive: 0.005
PPFIA1 (UniProt Q13136),inactive: 0.136,inactive: 0.019,inactive: -0.042,inactive: 0.104,inactive: -0.149,inactive: 0.11,inactive: 0.008,inactive: 0.175,inactive: 0.092,inactive: -0.192
PLPP6 (UniProt Q8IY26),inactive: -0.011,inactive: -0.066,inactive: 0.008,inactive: 0.147,inactive: 0.256,inactive: 0.09,inactive: 0.042,inactive: 0.093,inactive: 0.045,inactive: 0.037
PPM1B (UniProt O75688),inactive: 0.028,inactive: 0.031,inactive: 0.039,inactive: -0.041,inactive: 0.013,inactive: -0.042,inactive: 0.018,inactive: 0.027,inactive: -0.029,inactive: 0.087
PLRG1 (UniProt O43660),inactive: -0.06,inactive: 0.021,inactive: -0.073,inactive: 0.038,inactive: -0.062,inactive: 0.016,inactive: -0.04,inactive: -0.082,inactive: -0.01,inactive: 0.002
POU2F1 isoform 6 (UniProt P14859),inactive: -0.053,inactive: -0.037,inactive: 0.14,inactive: -0.115,inactive: -0.063,inactive: -0.11,inactive: 0.084,inactive: 0.044,inactive: 0.006,inactive: -0.018
PNPO (UniProt Q9NVS9),inactive: 0.006,inactive: 0.035,inactive: 0.098,inactive: -0.043,inactive: 0.028,inactive: -0.004,inactive: -0.009,inactive: 0.045,inactive: -0.019,inactive: 0.186
POP1 (UniProt Q99575),inactive: -0.034,inactive: 0.02,inactive: -0.023,inactive: -0.05,,inactive: 0.012,,inactive: -0.041,inactive: 0.016,inactive: 0.039
PLP2 (UniProt Q04941),inactive: -0.024,inactive: 0.271,inactive: -0.201,inactive: -0.026,inactive: -0.016,inactive: 0.045,,inactive: -0.069,inactive: -0.097,
POLR2D (UniProt O15514),inactive: 0.006,inactive: 0.192,inactive: -0.08,inactive: 0.038,,inactive: 0.158,,inactive: -0.068,inactive: -0.024,inactive: 0.017
PLIN3 (UniProt O60664),inactive: -0.019,inactive: -0.016,inactive: 0.068,inactive: -0.057,inactive: 0.016,inactive: -0.032,inactive: 0.002,inactive: -0.009,inactive: -0.035,inactive: -0.013
PLSCR1 (UniProt O15162),inactive: 0.079,inactive: 0.017,inactive: 0.101,inactive: -0.024,,inactive: -0.096,,inactive: -0.017,inactive: 0.042,active: -0.619
PMS2 (UniProt P54278),inactive: -0.396,inactive: 0.035,inactive: 0.205,inactive: 0.237,inactive: -0.021,,,inactive: -0.065,inactive: 0.509,inactive: -0.07
PPIC (UniProt P45877),inactive: 0.008,inactive: 0.018,inactive: -0.023,inactive: 0.313,inactive: -0.065,inactive: 0.208,,inactive: 0.023,inactive: -0.043,
POLR2K (UniProt P53803),inactive: 0.029,inactive: 0.18,inactive: 0.074,inactive: 0.098,,inactive: -0.011,,inactive: 0.001,inactive: -0.059,inactive: 0.029
PPIL4 (UniProt Q8WUA2),inactive: -0.022,inactive: -0.013,inactive: 0.027,inactive: -0.01,,inactive: 0,,inactive: 0.021,inactive: 0.019,inactive: -0.017
PPIP5K2 (UniProt H0Y9S9),inactive: 0.181,inactive: 0.042,inactive: -0.018,inactive: -0.202,inactive: -0.021,,inactive: -0.009,inactive: -0.093,inactive: -0.049,inactive: 0.095
POLR3B (UniProt Q9NW08),inactive: 0.038,inactive: -0.111,inactive: -0.004,inactive: 0.034,,inactive: -0.07,,inactive: 0.085,inactive: 0.03,inactive: -0.183
POLR1D (UniProt P0DPB6),inactive: 0.014,inactive: -0.058,inactive: -0.126,inactive: 0.054,inactive: 0.05,,inactive: 0.043,inactive: 0.075,inactive: -0.011,inactive: -0.146
POLR3K (UniProt Q9Y2Y1),inactive: -0.026,inactive: 0.015,inactive: 0.035,inactive: -0.027,,inactive: 0.066,,inactive: -0.059,inactive: 0.038,inactive: -0.075
PMPCB (UniProt O75439),inactive: 0.012,inactive: 0.015,inactive: 0.054,inactive: -0.081,,inactive: -0.096,,inactive: -0.019,inactive: 0.009,inactive: -0.034
PMM1 (UniProt Q92871),inactive: 0.051,inactive: 0.008,inactive: 0.032,inactive: 0.019,,inactive: -0.075,,inactive: -0.011,inactive: 0.027,inactive: 0.026
POLR3H (UniProt Q9Y535),inactive: -0.011,inactive: -0.08,inactive: -0.06,inactive: -0.044,inactive: -0.022,inactive: -0.178,,inactive: 0.004,inactive: -0.003,inactive: 0.064
PLIN2 (UniProt Q99541),inactive: -0.103,active: -0.841,inactive: 0.054,inactive: 0.03,,inactive: -0.31,,inactive: 0.031,inactive: -0.092,active: -2.6
POLR1D (UniProt P0DPB5),inactive: -0.131,inactive: 0.035,inactive: -0.101,inactive: 0.132,,inactive: 0.107,inactive: 0.063,,inactive: 0.064,inactive: -0.022
POLE4 (UniProt Q9NR33),inactive: 0.001,inactive: 0.149,inactive: 0.203,inactive: -0.202,,inactive: 0.096,inactive: 0.122,,inactive: -0.029,
PLK1 (UniProt P53350),inactive: -0.113,inactive: -0.105,inactive: -0.194,inactive: 0.031,,inactive: 0.095,,inactive: -0.1,inactive: 0.032,inactive: 0.01
PPIL2 (UniProt Q13356),inactive: 0.029,inactive: 0.027,inactive: 0.061,inactive: -0.012,,inactive: -0.081,,inactive: 0.131,inactive: -0.079,inactive: 0.037

# Individual results from the results shown:
# Value for PLP2 (UniProt Q04941) under log2 fold change [3]: inactive: -0.026
# Value for POLR3H (UniProt Q9Y535) under log2 fold change (crizotinib): inactive: -0.08
